# Measured values published in the supplement of paper PMC8728848.
# The list shows a part of the results.
# How the values were obtained:
# Test in all cases: glycan array binding signal (z-score within array); higher = stronger binding
# Conditions in all cases: glycan notation: IUPAC condensed, linker removed
# [1] = target: Fuc(a1-2)Gal(b1-4)[Fuc(a1-3)]GlcNAc(b1-2)Man(a1-3)[Fuc(a1-2)Gal(b1-4)[Fuc(a1-3)]GlcNAc(b1-2)Man(a1-6)]Man(b1-4)GlcNAc(b1-4)[Fuc(a1-6)]GlcNAc
# Method in brief: (§1)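 The binding signal is a Z-score computed within each array and averaged over linkers. Arrays of the same protein sequence at different concentrations or buffers were also averaged together. Data originate from 3228 arrays in the Consortium for Functional Glycomics database, kept only where the protein sequence was available.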
# [2] = target: Fuc(a1-2)Gal(b1-4)[Fuc(a1-3)]GlcNAc(b1-2)[Fuc(a1-2)Gal(b1-4)[Fuc(a1-3)]GlcNAc(b1-4)]Man(a1-3)[Fuc(a1-2)Gal(b1-4)[Fuc(a1-3)]GlcNAc(b1-2)Man(a1-6)]Man(b1-4)GlcNAc(b1-4)GlcNAc
# Method in brief: as §1
# [3] = target: Fuc(a1-2)Gal(b1-4)[Fuc(a1-3)]GlcNAc(b1-3)Gal(b1-4)[Fuc(a1-3)]GlcNAc
# Method in brief: as §1
# [4] = target: Fuc(a1-2)Gal(b1-4)[Fuc(a1-3)]GlcNAc(b1-3)Gal(b1-4)[Fuc(a1-3)]GlcNAc(b1-3)Gal(b1-4)[Fuc(a1-3)]GlcNAc
# Method in brief: as §1
# [5] = target: Fuc(a1-2)Gal(b1-4)[Fuc(a1-3)]GlcNAc(b1-3)GalNAc
# Method in brief: as §1
# [6] = target: Fuc(a1-2)Gal(b1-4)[Fuc(a1-3)]GlcNAc(b1-3)[Neu5Ac(a2-6)Gal(b1-4)GlcNAc(b1-6)]Gal(b1-4)Glc
# Method in brief: as §1
# [7] = target: Fuc(a1-2)Gal3S(b1-4)GlcNAc
# Method in brief: as §1
# [8] = target: Fuc(a1-2)Gal6S(b1-3)GlcNAc
# Method in brief: as §1
# [9] = target: Fuc(a1-2)Gal6S(b1-3)GlcNAc6S
# Method in brief: as §1
# Fuc(a1-2)Gal6S(b1-4)Glc = target: Fuc(a1-2)Gal6S(b1-4)Glc
# Method in brief: as §1
# [10] = target: Fuc(a1-2)Gal6S(b1-4)Glc6S
# Method in brief: as §1
# Fuc(a1-2)[Gal(a1-3)]Gal = target: Fuc(a1-2)[Gal(a1-3)]Gal
# Method in brief: as §1
# [11] = target: Fuc(a1-2)[Gal(a1-3)]Gal(b1-3)GalNAc
# Method in brief: as §1
# [12] = target: Fuc(a1-2)[Gal(a1-3)]Gal(b1-3)GalNAc(b1-3)Gal(a1-4)Gal(b1-4)Glc
# Method in brief: as §1
# [13] = target: Fuc(a1-2)[Gal(a1-3)]Gal(b1-3)GlcNAc
# Method in brief: as §1
# [14] = target: Fuc(a1-2)[Gal(a1-3)]Gal(b1-3)GlcNAc(b1-2)Man(a1-3)[Fuc(a1-2)[Gal(a1-3)]Gal(b1-3)GlcNAc(b1-2)Man(a1-6)]Man(b1-4)GlcNAc(b1-4)GlcNAc
# Method in brief: as §1
# [15] = target: Fuc(a1-2)[Gal(a1-3)]Gal(b1-3)GlcNAc(b1-2)Man(a1-3)[Fuc(a1-2)[Gal(a1-3)]Gal(b1-3)GlcNAc(b1-2)Man(a1-6)]Man(b1-4)GlcNAc(b1-4)[Fuc(a1-6)]GlcNAc
# Method in brief: as §1
# [16] = target: Fuc(a1-2)[Gal(a1-3)]Gal(b1-3)GlcNAc(b1-3)GalNAc
# Method in brief: as §1
# [17] = target: Fuc(a1-2)[Gal(a1-3)]Gal(b1-3)GlcNAc(b1-6)GalNAc
# Method in brief: as §1
# [18] = target: Fuc(a1-2)[Gal(a1-3)]Gal(b1-4)Glc
# Method in brief: as §1
# [19] = target: Fuc(a1-2)[Gal(a1-3)]Gal(b1-4)GlcNAc
# Method in brief: as §1
# [20] = target: Fuc(a1-2)[Gal(a1-3)]Gal(b1-4)GlcNAc(b1-2)Man
# Method in brief: as §1
# [21] = target: Fuc(a1-2)[Gal(a1-3)]Gal(b1-4)GlcNAc(b1-2)Man(a1-3)[Fuc(a1-2)[Gal(a1-3)]Gal(b1-4)GlcNAc(b1-2)Man(a1-6)]Man(b1-4)GlcNAc(b1-4)GlcNAc
# Method in brief: as §1
# [22] = target: Fuc(a1-2)[Gal(a1-3)]Gal(b1-4)GlcNAc(b1-2)Man(a1-3)[Fuc(a1-2)[Gal(a1-3)]Gal(b1-4)GlcNAc(b1-2)Man(a1-6)]Man(b1-4)GlcNAc(b1-4)[Fuc(a1-6)]GlcNAc
# Method in brief: as §1
# [23] = target: Fuc(a1-2)[Gal(a1-3)]Gal(b1-4)GlcNAc(b1-3)GalNAc
# Method in brief: as §1
# [24] = target: Fuc(a1-2)[Gal(a1-3)]Gal(b1-4)GlcNAc(b1-3)[Fuc(a1-2)[Gal(a1-3)]Gal(b1-4)GlcNAc(b1-6)]GalNAc
# Method in brief: as §1
# [25] = target: Fuc(a1-2)[Gal(a1-3)]Gal(b1-4)GlcNAc(b1-6)GalNAc
# Method in brief: as §1
# [26] = target: Fuc(a1-2)[Gal(a1-3)]Gal(b1-4)[Fuc(a1-3)]Glc
# Method in brief: as §1
# [27] = target: Fuc(a1-2)[Gal(a1-3)]Gal(b1-4)[Fuc(a1-3)]GlcNAc
# Method in brief: as §1
# [28] = target: Fuc(a1-2)[Gal(a1-3)]Gal(b1-4)[Fuc(a1-3)]GlcNAc(b1-3)GalNAc
# Method in brief: as §1
# [29] = target: Fuc(a1-2)[Gal(a1-4)]Gal(b1-4)GlcNAc
# Method in brief: as §1
# [30] = target: Fuc(a1-2)[GalNAc(a1-3)]Gal
# Method in brief: as §1
# [31] = target: Fuc(a1-2)[GalNAc(a1-3)]Gal(b1-3)GalNAc(a1-3)[Fuc(a1-2)]Gal(b1-4)GlcNAc
# Method in brief: as §1
# [32] = target: Fuc(a1-2)[GalNAc(a1-3)]Gal(b1-3)GalNAc(b1-3)Gal(a1-4)Gal(b1-4)Glc
# Method in brief: as §1
# [33] = target: Fuc(a1-2)[GalNAc(a1-3)]Gal(b1-3)GlcNAc
# Method in brief: as §1
# [34] = target: Fuc(a1-2)[GalNAc(a1-3)]Gal(b1-3)GlcNAc(b1-2)Man(a1-3)[Fuc(a1-2)[GalNAc(a1-3)]Gal(b1-3)GlcNAc(b1-2)Man(a1-6)]Man(b1-4)GlcNAc(b1-4)GlcNAc
# Method in brief: as §1
# [35] = target: Fuc(a1-2)[GalNAc(a1-3)]Gal(b1-3)GlcNAc(b1-2)Man(a1-3)[Fuc(a1-2)[GalNAc(a1-3)]Gal(b1-3)GlcNAc(b1-2)Man(a1-6)]Man(b1-4)GlcNAc(b1-4)[Fuc(a1-6)]GlcNAc
# Method in brief: as §1
# [36] = target: Fuc(a1-2)[GalNAc(a1-3)]Gal(b1-3)GlcNAc(b1-3)GalNAc
# Method in brief: as §1
binder,measurement,setting,value
PX9961K-bvu-480-28-480 (Bacteroides vulgatus) (protein) NKIPTTMAFRTVTDVDNAVNGLYDLMSGSGYYGAAMFAYGDMKGDDMQSSEESGVCNTCYMFNHRPNSLNAGSLWGRPFYILREAWNILNAIAEGKIESGDEKKLNALKGETMAVIALCQFDLTRCFGYPYTKDKGASLGAPLIDHLVGTYENPPRSTVAQAYDFIIETLEEAVTLMSEEKNNGRMNKYAARALLARIYLYHDDNRKAFDLADQLIKDADTSGSYALYPHEKYVAAWSVEAKFGSESFFEIANSVDDTPGRDSWGYLLNWYGYQKGFVTQKYAEQMLADPGDVRGHLLEENKYAGKTVWWLYKLRGTDLKTAPLECNNVVLRLSEVYLIAAEAGCKLGGDAAVQGLGYLNEIVKRGNPDNEVTMADYTLDRVLDERSKELVGEGHRFFDLLRNGKTIVRKGGYHLPSVDEEVDWDFYKCVLPIPEDQFIFSPEMEQNPGYPKN,glycan array binding signal (z-score),[1],0.056
same,glycan array binding signal (z-score),[2],0.069
same,glycan array binding signal (z-score),[3],1.38
same,glycan array binding signal (z-score),[4],0.101
same,glycan array binding signal (z-score),[5],0.48
same,glycan array binding signal (z-score),[6],-0.921
same,glycan array binding signal (z-score),[7],0.169
same,glycan array binding signal (z-score),[8],-0.375
same,glycan array binding signal (z-score),[9],0.05
same,glycan array binding signal (z-score),Fuc(a1-2)Gal6S(b1-4)Glc,0.599
same,glycan array binding signal (z-score),[10],-0.007
same,glycan array binding signal (z-score),Fuc(a1-2)[Gal(a1-3)]Gal,0.527
same,glycan array binding signal (z-score),[11],0.128
same,glycan array binding signal (z-score),[12],1.37
same,glycan array binding signal (z-score),[13],-0.605
same,glycan array binding signal (z-score),[14],-0.095
same,glycan array binding signal (z-score),[15],-0.336
same,glycan array binding signal (z-score),[16],0.431
same,glycan array binding signal (z-score),[17],-0.313
same,glycan array binding signal (z-score),[18],-0.108
same,glycan array binding signal (z-score),[19],-0.62
same,glycan array binding signal (z-score),[20],1.22
same,glycan array binding signal (z-score),[21],-0.256
same,glycan array binding signal (z-score),[22],-0.328
same,glycan array binding signal (z-score),[23],-0.904
same,glycan array binding signal (z-score),[24],-0.606
same,glycan array binding signal (z-score),[25],0.218
same,glycan array binding signal (z-score),[26],0.151
same,glycan array binding signal (z-score),[27],-0.093
same,glycan array binding signal (z-score),[28],-0.75
same,glycan array binding signal (z-score),[29],0.458
same,glycan array binding signal (z-score),[30],0.169
same,glycan array binding signal (z-score),[31],0.026
same,glycan array binding signal (z-score),[32],-0.401
same,glycan array binding signal (z-score),[33],-0.589
same,glycan array binding signal (z-score),[34],-0.403
same,glycan array binding signal (z-score),[35],-0.488
same,glycan array binding signal (z-score),[36],0.507

# Three records drawn at random from the list so far, as already listed:
binder,measurement,setting,value
PX9961K-bvu-480-28-480 (Bacteroides vulgatus) (protein) NKIPTTMAFRTVTDVDNAVNGLYDLMSGSGYYGAAMFAYGDMKGDDMQSSEESGVCNTCYMFNHRPNSLNAGSLWGRPFYILREAWNILNAIAEGKIESGDEKKLNALKGETMAVIALCQFDLTRCFGYPYTKDKGASLGAPLIDHLVGTYENPPRSTVAQAYDFIIETLEEAVTLMSEEKNNGRMNKYAARALLARIYLYHDDNRKAFDLADQLIKDADTSGSYALYPHEKYVAAWSVEAKFGSESFFEIANSVDDTPGRDSWGYLLNWYGYQKGFVTQKYAEQMLADPGDVRGHLLEENKYAGKTVWWLYKLRGTDLKTAPLECNNVVLRLSEVYLIAAEAGCKLGGDAAVQGLGYLNEIVKRGNPDNEVTMADYTLDRVLDERSKELVGEGHRFFDLLRNGKTIVRKGGYHLPSVDEEVDWDFYKCVLPIPEDQFIFSPEMEQNPGYPKN,glycan array binding signal (z-score),[8],-0.375
same,glycan array binding signal (z-score),[9],0.05
same,glycan array binding signal (z-score),[35],-0.488
